These results are taken from paper PMC8157044.

Amino acid sequences for entries named in this document (tags omitted). Residues count along the entry.
UniProt Q15075, residues 36-218: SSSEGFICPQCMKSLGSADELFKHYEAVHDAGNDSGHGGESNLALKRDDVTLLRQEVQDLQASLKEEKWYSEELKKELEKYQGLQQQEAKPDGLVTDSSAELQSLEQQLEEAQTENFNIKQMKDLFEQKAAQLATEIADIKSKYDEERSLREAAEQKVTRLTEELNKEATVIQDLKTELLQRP
UniProt Q8N122: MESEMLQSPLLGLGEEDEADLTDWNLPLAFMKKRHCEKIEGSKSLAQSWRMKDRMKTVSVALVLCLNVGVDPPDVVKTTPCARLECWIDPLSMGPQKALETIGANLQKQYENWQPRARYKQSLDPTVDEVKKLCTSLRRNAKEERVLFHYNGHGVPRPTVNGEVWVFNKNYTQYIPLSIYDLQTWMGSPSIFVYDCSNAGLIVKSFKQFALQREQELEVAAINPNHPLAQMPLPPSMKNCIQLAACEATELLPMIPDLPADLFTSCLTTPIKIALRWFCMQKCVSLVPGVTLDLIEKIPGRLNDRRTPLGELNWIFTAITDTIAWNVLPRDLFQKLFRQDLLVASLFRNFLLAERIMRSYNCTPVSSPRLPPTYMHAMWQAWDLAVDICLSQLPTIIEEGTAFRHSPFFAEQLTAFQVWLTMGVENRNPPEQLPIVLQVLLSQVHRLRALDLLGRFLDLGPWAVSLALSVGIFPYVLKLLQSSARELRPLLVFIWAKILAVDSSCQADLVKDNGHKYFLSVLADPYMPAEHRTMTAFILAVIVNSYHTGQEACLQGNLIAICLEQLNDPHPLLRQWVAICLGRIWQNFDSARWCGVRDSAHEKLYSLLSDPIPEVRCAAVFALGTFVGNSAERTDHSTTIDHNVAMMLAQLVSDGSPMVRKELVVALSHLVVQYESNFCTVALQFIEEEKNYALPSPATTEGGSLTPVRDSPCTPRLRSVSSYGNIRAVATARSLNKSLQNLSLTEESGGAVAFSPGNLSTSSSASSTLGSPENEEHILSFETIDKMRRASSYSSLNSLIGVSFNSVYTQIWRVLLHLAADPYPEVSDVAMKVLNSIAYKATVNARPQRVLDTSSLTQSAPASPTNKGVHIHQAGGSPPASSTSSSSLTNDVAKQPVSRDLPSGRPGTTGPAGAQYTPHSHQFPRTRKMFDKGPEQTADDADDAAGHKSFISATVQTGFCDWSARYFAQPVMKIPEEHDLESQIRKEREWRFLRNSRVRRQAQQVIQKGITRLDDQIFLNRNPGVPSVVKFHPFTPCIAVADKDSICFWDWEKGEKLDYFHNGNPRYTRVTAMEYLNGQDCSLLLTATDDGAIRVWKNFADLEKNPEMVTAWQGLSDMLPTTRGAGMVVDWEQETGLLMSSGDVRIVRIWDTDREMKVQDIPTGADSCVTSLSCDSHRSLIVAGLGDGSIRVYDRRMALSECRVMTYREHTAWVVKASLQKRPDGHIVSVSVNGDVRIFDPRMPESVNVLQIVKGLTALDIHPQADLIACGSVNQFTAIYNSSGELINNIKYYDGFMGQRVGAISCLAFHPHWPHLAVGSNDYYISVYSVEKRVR

The target of this experiment is GST-EEA1-Rab5-GTP-binding domain (human) (UniProt Q15075). The experiment in a line: pull-down; GST-EEA1-Rab5BD (4 μg) added to 800 μL postnuclear supernatant of U87MG cells (serum-starved, or PDGF-BB 50 ng/mL for 5 min; lysed by needle passage in 250 mM sucrose, 3 mM imidazole pH 7.4, 0.5 mM EDTA, no detergent), overnight at 4 °C, then Glutathione-Sepharose-4B beads 2 h at 4 °C, five washes, immunoblot; meant to isolate Rab5-GTP early endosomes; only the target purified.

No constants are given. Whether binding was seen depends on the method and setting. In cells and extracts the contact can be indirect.

Regarding “regulatory protein associated with mTOR (Raptor) (from UniProt Q8N122 1-1335)”, the binding result is given as “no binding (tested: 4 μg GST-EEA1-RBD in 800 μL PNS)”.
